The values below come from patent US20150344535A1, “NEUROTROPHIN-TYROSINE KINASE RECEPTOR SIGNALING” (THE UNIVERSITY OF QUEENSLAND, priority 2012, published 2015).

The chains behind the UniProt entries cited, without tags or fusion partners. Where a name states a change or a piece, a line headed by the entry shows the natural chain unless it says otherwise. A line that says so, or that is headed by a name, gives the form on record, which may keep a tag or linker. Residues count along the entry.
p75^Δ-JUX (P07174, form named): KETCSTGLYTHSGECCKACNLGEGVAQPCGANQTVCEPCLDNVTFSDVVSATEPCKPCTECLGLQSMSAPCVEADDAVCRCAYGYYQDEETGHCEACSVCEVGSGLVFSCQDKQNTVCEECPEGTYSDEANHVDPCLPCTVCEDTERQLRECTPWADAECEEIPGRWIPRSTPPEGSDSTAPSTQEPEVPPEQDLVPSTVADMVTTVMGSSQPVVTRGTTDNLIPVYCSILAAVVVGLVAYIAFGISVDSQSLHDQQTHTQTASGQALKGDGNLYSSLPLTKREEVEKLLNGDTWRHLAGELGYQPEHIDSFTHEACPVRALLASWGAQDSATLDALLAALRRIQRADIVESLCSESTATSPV
UniProt P01139, residues 122-239: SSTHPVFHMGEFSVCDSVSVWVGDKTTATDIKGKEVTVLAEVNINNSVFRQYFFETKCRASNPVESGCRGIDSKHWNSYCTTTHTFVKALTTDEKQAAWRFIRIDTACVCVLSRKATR

The experiment concerns the target p75^Δ-JUX (UniProt P07174). In words: flow cytometry, 26 nM NGF-FITC 60 min on ice, transfected HEK293 cells.

Results are given in words; binding and its absence hold for the method and conditions named. Some binding calls cover weakened binding; strength is not graded here.

As to “NGF-FITC (from UniProt P01139 122-239) (ligand)”, the binding entry is reported as “binds”.
